Test results as given in patent US7253146B2 (Polyphor Ltd, priority 2001, dated 2007).
Some peptides are written in HELM: one residue between dots, names in brackets for other building blocks, links after the first $.

Assay: general procedure: Fmoc solid-phase peptide synthesis; polystyrene crosslinked with 1–5% divinylbenzene, 2-chlorotrityl linker
Conditions: whole synthesis

Substance	crude HPLC purity [%]
Phe-Leu-Leu-Phe-Arg-Arg-Leu-Phe-Arg-^DPro^LPro	67
Lys-Arg-Leu-Lys-Tyr-Val-Arg-Arg-Gly-Trp-Leu-Val-Lys-Val-Leu-Arg-^DPro^LPro	38
Tyr-Lys-Leu-Arg-Leu-Lys-Tyr-Arg-Arg-Trp-Lys-Tyr-Arg-Val-Lys-Phe-^DPro^LPro	34
Tyr-Leu-Leu-Tyr-Arg-Arg-Leu-Tyr-Arg-^DPro^LPro	57
Leu-Phe-Phe-Arg-Arg-Arg-Leu-Phe-Arg-^DPro^LPro	52
Lys-Arg-Leu-Lys-Tyr-Val-Arg-Arg-Arg-Trp-Leu-Val-Lys-Val-Leu-Arg-^DPro^LPro	70
Arg-Leu-Leu-Phe-Arg-Arg-Leu-Phe-Phe-^DPro^LPro	68
Arg-Tyr-Leu-Tyr-Arg-Arg-Leu-Tyr-Leu-^DPro^LPro	66
Leu-Tyr-Tyr-Arg-Arg-Arg-Leu-Tyr-Arg-^DPro^LPro	30
Arg-Tyr-Leu-Arg-Arg-Arg-Leu-Tyr-Arg-^DPro^LPro	46
Arg-Tyr-Leu-Tyr-Arg-Arg-Leu-Leu-Arg-^DPro^LPro	55
Arg-Arg-Leu-Leu-Phe-Arg-Arg-Arg-Phe-Leu-Leu-Phe-Phe-Arg-^DPro^LPro	42
Tyr-Val-Arg-Arg-Arg-Phe-Leu-Val-^DPro^LPro	76
Leu-Tyr-Leu-Arg-Arg-Tyr-Leu-Tyr-Arg-^DPro^LPro	29
Arg-Phe-Leu-Arg-Arg-Phe-Phe-Leu-Arg-^DPro^LPro	30
PEPTIDE1{K.R.L.K.Y.W.R.R.R.W.Y.V.K.V.L.R.[dP].P}$PEPTIDE1,PEPTIDE1,1:R1-18:R2$$$V2.0	34
Arg-Tyr-Leu-Tyr-Arg-Arg-Arg-Leu-Tyr-Arg-^DPro^LPro	41
Leu-Leu-Tyr-Tyr-Arg-Arg-Leu-Tyr-Arg-^DPro^LPro	33
Tyr-Val-Tyr-Arg-Arg-Phe-Leu-Val-^DPro^LPro	81
Arg-Phe-Leu-Phe-Arg-Arg-Leu-Phe-Leu-^DPro^LPro	57
Arg-Arg-Leu-Phe-Leu-Arg-Arg-Arg-Phe-Phe-Leu-Phe-Phe-Arg-^DPro^LPro	34

Substance	crude HPLC purity [%]
Arg-Tyr-Leu-Tyr-Leu-Arg-Arg-Arg-Tyr-Leu-Tyr-Leu-Arg-Arg-^DPro^LPro	53
Arg-Leu-Leu-Tyr-Tyr-Arg-Arg-Arg-Tyr-Leu-Leu-Tyr-Arg-Arg-^DPro^LPro	29
Arg-Arg-Leu-Tyr-Leu-Arg-Arg-Arg-Tyr-Leu-Tyr-Leu-Tyr-Arg-^DPro^LPro	47
Tyr-Val-Arg-Lys-Gly-Phe-Leu-Val-^DPro^LPro	86
Arg-Arg-Leu-Tyr-Leu-Arg-Arg-Arg-Tyr-Tyr-Leu-Tyr-Tyr-Arg-^DPro^LPro	89
Arg-Phe-Leu-Phe-Leu-Arg-Arg-Arg-Phe-Phe-Leu-Phe-Arg-Arg-^DPro^LPro	78
Lys-Val-Tyr-Lys-Gly-Phe-Leu-Trp-^DPro^LPro	64
Arg-Arg-Leu-Leu-Tyr-Arg-Arg-Arg-Tyr-Leu-Leu-Tyr-Tyr-Arg-^DPro^LPro	91
Arg-Leu-Tyr-Tyr-Arg-Arg-Leu-Tyr-Leu-^DPro^LPro	33
Arg-Leu-Leu-Tyr-Arg-Arg-Leu-Tyr-Tyr-^DPro^LPro	63
Trp-Val-Arg-Lys-Gly-Phe-Leu-Trp-^DPro^LPro	70
Arg-Phe-Leu-Phe-Leu-Arg-Arg-Arg-Phe-Leu-Phe-Leu-Arg-Arg-^DPro^LPro	79
Arg-Tyr-Tyr-Tyr-Arg-Arg-Arg-Leu-Leu-Arg-^DPro^LPro	70
Lys-Arg-Leu-Lys-Tyr-Trp-Arg-Arg-Gly-Trp-Lys-Val-Lys-Val-Leu-Arg-^DPro^LPro	26
Leu-Tyr-Leu-Tyr-Arg-Arg-Leu-Tyr-Arg-^DPro^LPro	67
Arg-Phe-Phe-Phe-Arg-Arg-Arg-Leu-Leu-Arg-^DPro^LPro	45
Arg-Leu-Leu-Leu-Tyr-Arg-Arg-Arg-Tyr-Leu-Tyr-Tyr-Arg-Arg-^DPro^LPro	50
Leu-Tyr-Leu-Tyr-Arg-Arg-Arg-Leu-Tyr-Arg-^DPro^LPro	35
Tyr-Lys-Leu-Gln-Leu-Gln-Lys-Lys-Gly-Trp-Gln-Tyr-Gln-Val-Lys-Phe-^DPro^LPro	84
PEPTIDE1{R.Y.Y.R.R.R.L.Y.R.[dP].P}$PEPTIDE1,PEPTIDE1,1:R1-11:R2$$$V2.0	90
Arg-Arg-Leu-Leu-Tyr-Arg-Arg-Arg-Tyr-Leu-Tyr-Tyr-Leu-Arg-^DPro^LPro	65

Substance	crude HPLC purity [%]
Arg-Leu-Phe-Phe-Arg-Arg-Leu-Phe-Leu-^DPro^LPro	35
Arg-Phe-Leu-Phe-Arg-Arg-Arg-Leu-Phe-Arg-^DPro^LPro	37
Lys-Val-Tyr-Arg-Arg-Phe-Leu-Val-^DPro^LPro	75
Arg-Phe-Leu-Phe-Arg-Arg-Leu-Leu-Arg-^DPro^LPro	51
Leu-Leu-Phe-Phe-Arg-Arg-Leu-Phe-Arg-^DPro^LPro	35
Lys-Arg-Leu-Tyr-Tyr-Trp-Arg-Arg-Arg-Trp-Tyr-Val-Phe-Val-Leu-Arg-^DPro^LPro	35
Tyr-Lys-Leu-Gln-Leu-Lys-Trp-Arg-Arg-Phe-Lys-Tyr-Gln-Val-Lys-Phe-^DPro^LPro	21
Leu-Phe-Leu-Phe-Arg-Arg-Leu-Phe-Arg-^DPro^LPro	38
PEPTIDE1{R.Y.L.L.Y.R.R.R.Y.L.L.Y.R.R.[dP].P}$PEPTIDE1,PEPTIDE1,1:R1-16:R2$$$V2.0	48
Tyr-Val-Arg-Arg-Arg-Trp-Leu-Val-^DPro^LPro	35
Arg-Phe-Leu-Arg-Arg-Arg-Leu-Phe-Arg-^DPro^LPro	35
Lys-Arg-Leu-Tyr-Tyr-Trp-Arg-Arg-Gly-Trp-Tyr-Val-Phe-Val-Leu-Arg-^DPro^LPro	39
Lys-Arg-Leu-Tyr-Tyr-Trp-Arg-Arg-Arg-Trp-Lys-Val-Phe-Val-Leu-Arg-^DPro^LPro	22
Arg-Phe-Leu-Arg-Arg-Phe-Leu-Phe-Arg-^DPro^LPro	33
Arg-Tyr-Leu-Tyr-Leu-Arg-Arg-Arg-Tyr-Tyr-Leu-Tyr-Arg-Arg-^DPro^LPro	51
Arg-Tyr-Leu-Arg-Arg-Tyr-Tyr-Leu-Arg-^DPro^LPro	65
Arg-Phe-Leu-Phe-Arg-Arg-Arg-Leu-Phe-Leu-^DPro^LPro	50
PEPTIDE1{R.L.F.F.R.R.R.L.F.R.[dP].P}$PEPTIDE1,PEPTIDE1,1:R1-12:R2$$$V2.0	56
Lys-Arg-Leu-Lys-Tyr-Trp-Arg-Arg-Gly-Trp-Tyr-Val-Lys-Val-Leu-Arg-^DPro^LPro	27
Arg-Phe-Phe-Arg-Arg-Arg-Leu-Phe-Arg-^DPro^LPro	26
